From PubChem BioAssay AID493014 (National Center for Advancing Translational Sciences (NCATS), 2011)
The campaign covered roughly 340,000 compounds. About 170 (0.05%) were called active. Inconclusive results, whose numbers are uncertain, are shown with a selection of clear calls. Calls come from the whole dose curve; as a rule, active = well fitted inhibition curve with a large enough effect in the signal ratio, with a control signal flat (not every such curve was filed as active); inconclusive = small, poorly fitted or top-dose-only effect, or effect the other way, or a change in a side signal; inactive = flat fitted curve, though single readings scatter; the % refers to the signal ratio. A potency beside an inconclusive call is a rough fit, not a confirmed value.

Experiment: qHTS Assay to Find Inhibitors of Chronic Active B-Cell Receptor Signaling;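 for activity change, negative = inhibition: plate controls were basal doxycycline-induced cells for no effect and cells given 10 µM MG132 for full effect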
Conditions: ABC-DLBCL IkBa-CBG/CBR reporter, luminescence ratio (green luciferase fused to IkBa over red control in TMD8 lymphoma cells), 4 h; activity change, negative = inhibition: at 46.1 µM (top of the series)
Outline: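 TMD8 human ABC-DLBCL cells with doxycycline-inducible IκBα–green luciferase fusion and unfused red luciferase, in 0.5% FBS medium; compounds up to 46 uM, 4 h at 37C. Green/red luminescence ratio, filter-overlap corrected, fitted to concentration-response curves.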
Potency is the fitted concentration of half-maximal effect.

Row | Structure (SMILES) | activity change, negative = inhibition | Potency
1 | CC(C)C(=O)Nc1nnc(Cc2ccccc2)s1 | inconclusive: -0.616% | 
2 | Cc1ccc(S(=O)(=O)Nc2nc(C)c(C(=O)NNS(=O)(=O)c3ccccc3)s2)cc1 |  | inconclusive: 11.2 µM [falling, partial curve, poor fit]
3 | CCN(CC)CCCn1c2c(c(SCC(=O)Nc3nc4ccccc4s3)nc1=O)CCC2 | inconclusive: -4.06% | 
4 | CC(=O)c1cc2c(cc1NS(=O)(=O)c1ccc(C)cc1)OCO2 | inconclusive: 2.09% | 
5 | COc1ccc(/C=N/Nc2cc(N3CCCC3)nc(N3CCCC3)n2)cc1 | inactive | 
6 | CCOC(=O)c1ccc(NC(=O)CSc2nc(C)cc(=O)[nH]2)cc1 | inactive | 
7 | CSc1ccc(/C=N/NC(=O)c2sccc2C)cc1 |  | inconclusive: 3.26 µM [rising, full curve, poor fit]
8 | COc1ccc(NC(=O)c2cc3n(n2)C(C(F)(F)F)CC(c2ccc4c(c2)OCO4)N3)cc1OC (stereo not drawn) | inconclusive: 18.7% | 
9 | COc1ccc(-c2nnc3n(CCc4ccccc4)c(=O)c4ccccc4n23)c(OC)c1 |  | inconclusive: 0.651 µM [falling, full curve, poor fit]
10 | CN(C(=O)CSc1nnc(-c2ccc(F)cc2)c2ccccc12)C1CCS(=O)(=O)C1 (stereo not drawn) |  | inconclusive: 17.8 µM [falling, partial curve, poor fit]
11 | COc1cc(CCC(=O)OCC(=O)Nc2cccc(S(=O)(=O)N(C)C)c2)cc(OC)c1OC | inconclusive: -0.683% | 
12 | S=C(NCCc1ccccc1)NC1CCCCCC1 | inactive | 
13 | O=C1NC(=S)N/C1=C/c1cc([N+](=O)[O-])ccc1N1CCOCC1 | inconclusive: 6.93% | 
14 | CC(C)NS(=O)(=O)c1ccc(CCC(=O)NCc2ccco2)cc1 | inconclusive: 4.21% | 
15 | O=C1/C(=C/c2cccs2)SC(=S)N1c1ccccc1 | inconclusive: 12.5% | 
16 | CC(C)OC(=O)c1ccc(OC(=O)c2cccnc2)cc1 | inconclusive: -6.82% | 
17 | O=C1NCCN1CCNS(=O)(=O)c1ccc2ccccc2c1 | inconclusive: -1.53% | 
18 | CCCCn1c(N)c(N(C)C(=O)c2ccc(Br)o2)c(=O)[nH]c1=O | inactive | 
19 | O=C(O)c1cccc(N2C(=O)c3cccc(Oc4ccc(Cl)cc4)c3C2=O)c1 |  | inconclusive: 7.31 µM [falling, partial curve, poor fit]
20 | CC1CC(C)CN(C(=O)CCCNC(=O)c2ccc(Cl)cc2)C1 (stereo not drawn) | inconclusive: -3.38% | 
21 | Cc1ccc(CNC(=O)NC2CCCCC2)cc1 | inconclusive: 4.96% | 

Gathered by group: those above containing fluorine (two)
Row | Structure (SMILES) | activity change, negative = inhibition | Potency
8 | COc1ccc(NC(=O)c2cc3n(n2)C(C(F)(F)F)CC(c2ccc4c(c2)OCO4)N3)cc1OC (stereo not drawn) | inconclusive: 18.7% | 
10 | CN(C(=O)CSc1nnc(-c2ccc(F)cc2)c2ccccc12)C1CCS(=O)(=O)C1 (stereo not drawn) |  | inconclusive: 17.8 µM [falling, partial curve, poor fit]

Later entries

Row | Structure (SMILES) | activity change, negative = inhibition | Potency
22 | COc1ccc(C2C(C#N)=C(N)Oc3cc(N)ccc32)cc1OC (stereo not drawn) | inconclusive: -9.2% | 
23 | CCCc1cc(-c2n[nH]c(C)c2-c2ccc(C(=O)OCC)o2)c(O)cc1O |  | inconclusive: 14.6 µM [falling, partial curve]
24 | Cc1c(C#N)c(N=CN(C)C)c(C(=O)c2ccccc2)n1-c1ccccc1 | inconclusive: 6.66% | 
25 | Cc1[nH]c2ccccc2c1/C=N/NC(=O)c1cc(-c2ccncc2)nc2ccccc12 | inconclusive: -12.9% | 
26 | O=C(CCCc1nc(-c2ccc(Cl)cc2)no1)N1CCOCC1 | inactive | 
27 | O=C(Nc1ccc(Cl)c(Cl)c1)N1CCOCC1 | inconclusive: -9.62% | 
28 | COc1ccccc1NC(=O)CSc1nnc(CNC(=O)COc2ccc(Cl)cc2)o1 | inconclusive: -3.02% | 
29 | COc1ccc(CNc2ncc(-c3ccc(Br)cc3)n2C)cc1OC | inconclusive: 0.699% | 
30 | Cc1ccc(CN(C(=O)c2csnn2)C(C(=O)NC2CCCC2)c2ccc(C)o2)cc1 (stereo not drawn) | inconclusive: -19.5% | 
31 | N#CC1=C(N)SC(N)=C(C#N)C1c1cccc(O)c1 | inactive | 
32 | O=C(Nc1c(C(=O)O)[nH]c2ccccc12)NC1CCCCC1 | inconclusive: 0.223% | 
33 | CC(=O)c1ccc(Nc2nc3ccc(C)cc3n3cnnc23)cc1 | inconclusive: 2.34% | 
34 | COc1ccc(N2CCN(Cc3cc(=O)c(OCC(=O)Nc4ccccc4)co3)CC2)cc1 | inactive | 
35 | OCCC1CN(Cc2cn[nH]c2C2CCCCC2)CCN1C1CCCC1 (stereo not drawn) | inactive | 
36 | Cc1c(C)c2cc(Cl)c(OCC(=O)N3CCN(c4ccc(F)cc4)CC3)cc2oc1=O | inactive | 
37 | COc1ccc(/C=N/NC(=O)c2ccc(COc3cccc4cccnc34)cc2)cc1O |  | inconclusive: 10 µM [falling, partial curve, poor fit]
38 | COc1cc(O)c(C(CC(=O)N2CCCC2)c2cc(OC)c(OC)c(OC)c2)c(OC)c1 (stereo not drawn) | inconclusive: -1.8% | 
39 | O=C(/C=C/c1ccco1)NC(=S)Nc1ccccc1Br | inconclusive: 1.12% | 
40 | CC(C)[C@H]1CN(C)CCN1Cc1cn(C)nc1-c1cccc(Cl)c1 | inconclusive: -20.7% | 
41 | CCCN(CCC)CC(O)COc1ccc2c(c1)OCO2 (stereo not drawn) | inactive | 
42 | CC(=O)Nc1cc(C(=O)NCc2ccc(C)cc2)ccc1S(=O)(=O)c1ccc(Cl)cc1 | inconclusive: 0.433% | 

Row | Structure (SMILES) | activity change, negative = inhibition | Potency
43 | Cc1ccc(NC(=S)N=Nc2c(O)n(C)c3ccc(S(=O)(=O)N4CCOCC4)cc23)cc1 |  | inconclusive: 9.2 µM [falling, partial curve, poor fit]
44 | Cc1cccc(OCCCN2CCCCCC2)c1 | inactive | 
45 | COC(=O)c1ccc(CN2C(=O)C(C)N(C(=O)c3c(F)cccc3F)c3ccccc32)cc1 (stereo not drawn) | inactive | 
46 | NC(=O)c1csc(-c2ccncc2)n1 | inconclusive: -19.7% | 
47 | CCc1ccc(OCCCC(=O)NCc2ccco2)cc1 | inconclusive: 21.2% | 
48 | COc1cc2c(cc1NC(=O)CSc1ccccn1)oc1ccccc12 | inconclusive: 12.6% | 
49 | Cc1cccc(N=C2NC(=O)/C(=C/c3cccnc3)S2)c1 | inconclusive: -14.1% | 
50 | CN(CC(CC(=O)Nc1nncs1)c1ccccc1)S(=O)(=O)c1ccc(Br)cc1 (stereo not drawn) | inconclusive: -16.1% | 
51 | Cc1ccc(S(=O)(=O)NNC(=O)c2ccc(O)cc2)cc1 |  | inconclusive: 8.2 µM [falling, partial curve, poor fit]
52 | O=C(CCCNS(=O)(=O)c1cccc2nsnc12)NCCc1ccccc1 | inactive | 
53 | CCCCN(C)CCCNC(=O)C1CCC(CNS(=O)(=O)c2c(C)cc(C)cc2C)CC1 (stereo not drawn) | inconclusive: -0.608% | 
54 | O=C(Nc1ccc(F)cc1F)c1ccc(S(=O)(=O)N2CCCCC2)cc1 | inconclusive: -19.8% | 
55 | O=C(N/N=C/c1ccncc1)c1ccc2c(c1)OCO2 |  | inconclusive: 25.1 µM [falling, partial curve]
56 | CCOC(=O)c1c(NC(=O)COc2ccc(Br)cc2)sc2c1CCCC2 | inactive | 
57 | O=C(NCCN1C(=O)S/C(=C\c2ccc(Cl)cc2Cl)C1=O)C1=COCCO1 | inactive | 
58 | COc1ccc(NC(=O)O/N=C/c2c(C)nn(C(C)(C)C)c2C)cc1 | inactive | 
59 | CCn1c(CNC(C)=O)nnc1SCC(=O)c1ccc(Br)cc1 |  | inconclusive: 16.4 µM [falling, single point]
60 | COC(=O)C1C(c2ccc(Br)cc2)Nc2nnc(C(F)(F)F)n2C1(C)O (stereo not drawn) |  | inconclusive: 25.1 µM [falling, single point]
61 | COc1ccc(Cn2c(CCC(=O)Nc3ccc(C)cc3)nc3cccnc32)cc1 | inactive | 
62 | COc1ccc(C2=NN(C(=O)c3ccccc3)C(c3ccc(OC)c(OC)c3)C2)c(OC(C)=O)c1 (stereo not drawn) | inconclusive: -0.196% | 
63 | COc1ccc2c3c(cccc13)OC2=O | inconclusive: -0.713% | 

Record cards, from the list above.
Cc1ccc(NC(=S)N=Nc2c(O)n(C)c3ccc(S(=O)(=O)N4CCOCC4)cc23)cc1 as listed: Potency: inconclusive: 9.2 µM [falling, partial curve, poor fit]
CCc1ccc(OCCCC(=O)NCc2ccco2)cc1 as listed: activity change, negative = inhibition: inconclusive: 21.2%

(next part)

Row | Structure (SMILES) | activity change, negative = inhibition | Potency
64 | Cc1ccc(C)c(NC(CC(=O)c2ccccc2)C(=O)OCC(=O)c2cccs2)c1 (stereo not drawn) | inconclusive: 0.219% | 
65 | O=C(O)C(c1ccccc1)N1C(=O)/C(=C\c2ccc(-c3cccc(Cl)c3)o2)SC1=S (stereo not drawn) | inconclusive: 3.29% | 
66 | CCN1C(=O)[C@H]2[C@@H](c3ccc(C)cc3)N3C(=O)N(c4ccc(OC)cc4)C(=O)[C@@]3(CC)[C@H]2C1=O | inactive | 
67 | CCOc1cc(CNC2CCCC2)cc(Cl)c1OCc1ccc(F)cc1 |  | inconclusive: 29.1 µM [rising, single point]
68 | O=C(O)CCCC(=O)Nc1ccccc1C(=O)O | inconclusive: -17.4% | 
69 | O=C(c1ccccc1)c1ccc(O)cc1O | inactive | 
70 | CCc1cc2c(NCc3ccccc3)nc(C)nc2s1 | inconclusive: -3.58% | 
71 | COC(=O)c1ccc(/C=N/NS(=O)(=O)c2cc(C)ccc2C)cc1 |  | inconclusive: 5.8 µM [falling, partial curve, poor fit]
72 | COc1ccccc1/C=C/C=N/N1CCN(Cc2ccc(Cl)cc2)CC1 |  | inconclusive: 20 µM [falling, partial curve, poor fit]
73 | Cc1cc(C(=O)Cn2nnc3ccccc3c2=O)c(C)n1-c1ccccc1F | inactive | 
74 | C=CCn1c(O)c(N=NC(=O)CNC(=O)c2ccco2)c2ccccc21 | inactive | 
75 | CC1CCN(C(=O)CN(c2ccc(Cl)c(C(F)(F)F)c2)S(C)(=O)=O)CC1 | inconclusive: 10.5% | 
76 | CC(C)(C)c1ccc(OC(=O)N2CCOCC2)cc1 | inconclusive: 0.0354% | 
77 | O=C(COC(=O)Cc1cccs1)Nc1ccccc1F |  | inconclusive: 29.1 µM [falling, single point]
78 | CCOC(=O)c1cc(NC(=O)/C=C\C(=O)O)ccc1Cl | inactive | 
79 | NS(=O)(=O)c1ccc(N=Nc2c[nH]c(=O)c(O)c2)cc1 |  | inconclusive: 14.1 µM [rising, partial curve]
80 | C/C(=N\NC(=O)c1csc2ccccc12)c1ccc(O)cc1 |  | inconclusive: 11.6 µM [falling, partial curve]
81 | Cc1nnc(SCC(=O)c2c[nH]c3ccccc23)n1C1CC1 | inconclusive: -12.1% | 
82 | CC(c1ccccc1)C1C(C#N)=C(N)OC2=C1C(=O)CC(C)(C)C2 (stereo not drawn) | inconclusive: 1.93% | 
83 | Cc1occc1-c1n[nH]c(=S)n1CC(C)C | inconclusive: 10.5% | 
